Here are results for eleven targets from the supplement of paper PMC10849652.

Sequences of proteins named here, by UniProt entry; tags and fusion partners are left off. A change or cut given only in a name is not applied to a line headed by its entry.
UniProt O00541, whole entry, looked up: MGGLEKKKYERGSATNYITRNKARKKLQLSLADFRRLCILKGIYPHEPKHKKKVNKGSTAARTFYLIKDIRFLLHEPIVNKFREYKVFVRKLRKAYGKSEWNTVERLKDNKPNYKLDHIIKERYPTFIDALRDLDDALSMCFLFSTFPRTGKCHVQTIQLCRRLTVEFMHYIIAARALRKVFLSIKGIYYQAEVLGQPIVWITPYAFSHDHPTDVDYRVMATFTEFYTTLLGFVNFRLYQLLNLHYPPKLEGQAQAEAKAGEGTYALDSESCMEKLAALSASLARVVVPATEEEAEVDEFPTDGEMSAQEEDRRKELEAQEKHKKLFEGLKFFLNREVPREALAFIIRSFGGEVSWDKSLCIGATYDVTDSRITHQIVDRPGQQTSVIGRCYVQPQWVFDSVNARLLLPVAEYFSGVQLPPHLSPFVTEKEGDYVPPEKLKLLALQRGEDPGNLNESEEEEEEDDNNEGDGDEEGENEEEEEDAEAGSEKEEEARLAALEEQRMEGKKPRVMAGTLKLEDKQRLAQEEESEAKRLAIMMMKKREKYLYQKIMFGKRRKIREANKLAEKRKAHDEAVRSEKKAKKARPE
UniProt Q14554: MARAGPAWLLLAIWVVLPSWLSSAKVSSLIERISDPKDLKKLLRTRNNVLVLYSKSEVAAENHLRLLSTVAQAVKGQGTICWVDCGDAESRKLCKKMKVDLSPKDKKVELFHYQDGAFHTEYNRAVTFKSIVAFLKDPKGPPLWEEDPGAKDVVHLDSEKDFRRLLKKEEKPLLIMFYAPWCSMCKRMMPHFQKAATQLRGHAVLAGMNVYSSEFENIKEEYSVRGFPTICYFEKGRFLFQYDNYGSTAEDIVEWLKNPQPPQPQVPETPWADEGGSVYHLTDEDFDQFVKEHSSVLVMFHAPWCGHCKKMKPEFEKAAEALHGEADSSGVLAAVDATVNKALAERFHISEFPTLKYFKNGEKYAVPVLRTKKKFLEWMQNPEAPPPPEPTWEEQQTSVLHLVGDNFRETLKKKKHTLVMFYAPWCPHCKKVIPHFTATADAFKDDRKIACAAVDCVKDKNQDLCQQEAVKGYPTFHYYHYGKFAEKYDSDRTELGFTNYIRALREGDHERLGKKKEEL
UniProt P08559, whole entry, looked up: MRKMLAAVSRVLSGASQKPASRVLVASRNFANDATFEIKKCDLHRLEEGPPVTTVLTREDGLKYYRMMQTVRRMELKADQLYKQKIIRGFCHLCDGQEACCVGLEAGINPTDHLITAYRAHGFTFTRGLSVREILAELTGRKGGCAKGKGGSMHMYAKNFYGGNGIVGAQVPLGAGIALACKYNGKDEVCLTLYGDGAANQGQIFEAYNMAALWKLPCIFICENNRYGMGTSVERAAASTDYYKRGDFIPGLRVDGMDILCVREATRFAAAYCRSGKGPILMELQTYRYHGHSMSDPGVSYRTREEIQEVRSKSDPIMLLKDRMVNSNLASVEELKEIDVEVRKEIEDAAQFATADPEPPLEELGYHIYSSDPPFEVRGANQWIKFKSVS
UniProt P16118: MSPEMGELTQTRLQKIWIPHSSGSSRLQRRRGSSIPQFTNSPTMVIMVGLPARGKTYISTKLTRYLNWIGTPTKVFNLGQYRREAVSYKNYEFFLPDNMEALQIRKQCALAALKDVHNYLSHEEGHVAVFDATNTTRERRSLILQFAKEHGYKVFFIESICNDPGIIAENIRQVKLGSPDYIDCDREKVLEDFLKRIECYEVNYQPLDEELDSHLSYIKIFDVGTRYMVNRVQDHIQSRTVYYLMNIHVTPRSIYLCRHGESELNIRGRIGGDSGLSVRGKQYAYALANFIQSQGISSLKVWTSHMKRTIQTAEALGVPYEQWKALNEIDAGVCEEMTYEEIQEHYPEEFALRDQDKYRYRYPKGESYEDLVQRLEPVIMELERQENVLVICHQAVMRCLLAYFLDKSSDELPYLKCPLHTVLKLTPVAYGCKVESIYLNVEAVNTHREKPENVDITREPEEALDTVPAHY
UniProt Q9H6A9: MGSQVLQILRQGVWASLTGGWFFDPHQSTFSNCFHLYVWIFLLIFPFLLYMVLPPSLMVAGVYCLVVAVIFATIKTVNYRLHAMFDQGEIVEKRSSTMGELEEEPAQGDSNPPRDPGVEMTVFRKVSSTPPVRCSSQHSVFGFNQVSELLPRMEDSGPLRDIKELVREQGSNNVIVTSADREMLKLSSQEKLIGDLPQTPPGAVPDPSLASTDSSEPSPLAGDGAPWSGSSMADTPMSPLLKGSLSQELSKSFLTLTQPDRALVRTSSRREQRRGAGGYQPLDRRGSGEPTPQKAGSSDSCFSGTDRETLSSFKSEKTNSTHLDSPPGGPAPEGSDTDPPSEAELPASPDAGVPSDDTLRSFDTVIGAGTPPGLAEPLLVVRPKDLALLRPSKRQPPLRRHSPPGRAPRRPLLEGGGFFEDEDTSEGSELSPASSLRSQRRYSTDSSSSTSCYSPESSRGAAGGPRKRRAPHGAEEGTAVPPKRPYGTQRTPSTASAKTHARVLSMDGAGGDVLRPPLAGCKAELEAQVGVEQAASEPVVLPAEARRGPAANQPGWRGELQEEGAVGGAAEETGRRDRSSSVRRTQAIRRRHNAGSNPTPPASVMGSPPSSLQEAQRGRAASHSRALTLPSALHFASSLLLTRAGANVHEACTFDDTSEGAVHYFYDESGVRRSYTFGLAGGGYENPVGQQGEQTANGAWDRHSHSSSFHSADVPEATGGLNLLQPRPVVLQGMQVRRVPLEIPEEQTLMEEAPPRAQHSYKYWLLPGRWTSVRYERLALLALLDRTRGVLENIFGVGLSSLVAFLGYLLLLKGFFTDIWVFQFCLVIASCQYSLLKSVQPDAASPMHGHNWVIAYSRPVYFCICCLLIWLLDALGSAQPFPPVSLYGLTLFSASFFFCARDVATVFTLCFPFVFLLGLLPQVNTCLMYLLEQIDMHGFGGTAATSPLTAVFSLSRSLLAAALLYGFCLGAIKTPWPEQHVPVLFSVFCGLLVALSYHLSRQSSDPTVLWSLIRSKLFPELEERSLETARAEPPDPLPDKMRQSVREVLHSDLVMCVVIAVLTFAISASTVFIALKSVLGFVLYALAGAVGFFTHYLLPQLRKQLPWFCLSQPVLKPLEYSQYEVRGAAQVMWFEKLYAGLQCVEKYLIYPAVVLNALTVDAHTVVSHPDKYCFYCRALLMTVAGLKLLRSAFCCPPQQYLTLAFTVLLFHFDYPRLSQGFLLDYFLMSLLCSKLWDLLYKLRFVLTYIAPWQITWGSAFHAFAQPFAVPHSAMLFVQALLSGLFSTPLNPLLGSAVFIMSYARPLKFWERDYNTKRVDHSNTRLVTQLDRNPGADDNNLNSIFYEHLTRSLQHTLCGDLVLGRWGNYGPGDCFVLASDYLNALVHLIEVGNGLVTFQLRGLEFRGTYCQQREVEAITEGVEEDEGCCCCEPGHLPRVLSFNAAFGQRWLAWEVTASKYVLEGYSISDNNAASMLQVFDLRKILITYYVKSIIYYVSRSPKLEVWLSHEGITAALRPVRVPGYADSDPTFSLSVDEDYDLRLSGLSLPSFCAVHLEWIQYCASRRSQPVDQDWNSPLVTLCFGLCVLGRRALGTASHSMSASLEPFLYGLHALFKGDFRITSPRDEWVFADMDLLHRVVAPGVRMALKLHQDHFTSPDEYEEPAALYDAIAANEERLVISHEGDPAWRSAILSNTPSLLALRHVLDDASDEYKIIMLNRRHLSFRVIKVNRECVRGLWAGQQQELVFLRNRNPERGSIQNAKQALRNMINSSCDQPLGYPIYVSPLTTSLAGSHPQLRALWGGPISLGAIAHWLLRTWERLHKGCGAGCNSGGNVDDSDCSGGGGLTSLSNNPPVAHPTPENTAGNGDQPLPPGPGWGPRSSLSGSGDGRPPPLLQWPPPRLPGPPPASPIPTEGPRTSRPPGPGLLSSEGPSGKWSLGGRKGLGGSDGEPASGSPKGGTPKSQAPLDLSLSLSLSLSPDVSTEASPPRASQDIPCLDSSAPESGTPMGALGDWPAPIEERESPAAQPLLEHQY
UniProt O00628: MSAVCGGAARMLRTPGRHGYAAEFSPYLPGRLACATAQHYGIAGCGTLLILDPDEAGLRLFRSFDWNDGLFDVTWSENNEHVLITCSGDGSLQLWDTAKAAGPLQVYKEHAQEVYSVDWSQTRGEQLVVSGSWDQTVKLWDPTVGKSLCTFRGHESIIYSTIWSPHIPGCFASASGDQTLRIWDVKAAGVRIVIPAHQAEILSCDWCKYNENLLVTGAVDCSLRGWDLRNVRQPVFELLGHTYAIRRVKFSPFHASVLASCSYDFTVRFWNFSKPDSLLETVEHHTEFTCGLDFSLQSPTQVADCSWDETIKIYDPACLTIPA
UniProt O94913, whole entry, looked up: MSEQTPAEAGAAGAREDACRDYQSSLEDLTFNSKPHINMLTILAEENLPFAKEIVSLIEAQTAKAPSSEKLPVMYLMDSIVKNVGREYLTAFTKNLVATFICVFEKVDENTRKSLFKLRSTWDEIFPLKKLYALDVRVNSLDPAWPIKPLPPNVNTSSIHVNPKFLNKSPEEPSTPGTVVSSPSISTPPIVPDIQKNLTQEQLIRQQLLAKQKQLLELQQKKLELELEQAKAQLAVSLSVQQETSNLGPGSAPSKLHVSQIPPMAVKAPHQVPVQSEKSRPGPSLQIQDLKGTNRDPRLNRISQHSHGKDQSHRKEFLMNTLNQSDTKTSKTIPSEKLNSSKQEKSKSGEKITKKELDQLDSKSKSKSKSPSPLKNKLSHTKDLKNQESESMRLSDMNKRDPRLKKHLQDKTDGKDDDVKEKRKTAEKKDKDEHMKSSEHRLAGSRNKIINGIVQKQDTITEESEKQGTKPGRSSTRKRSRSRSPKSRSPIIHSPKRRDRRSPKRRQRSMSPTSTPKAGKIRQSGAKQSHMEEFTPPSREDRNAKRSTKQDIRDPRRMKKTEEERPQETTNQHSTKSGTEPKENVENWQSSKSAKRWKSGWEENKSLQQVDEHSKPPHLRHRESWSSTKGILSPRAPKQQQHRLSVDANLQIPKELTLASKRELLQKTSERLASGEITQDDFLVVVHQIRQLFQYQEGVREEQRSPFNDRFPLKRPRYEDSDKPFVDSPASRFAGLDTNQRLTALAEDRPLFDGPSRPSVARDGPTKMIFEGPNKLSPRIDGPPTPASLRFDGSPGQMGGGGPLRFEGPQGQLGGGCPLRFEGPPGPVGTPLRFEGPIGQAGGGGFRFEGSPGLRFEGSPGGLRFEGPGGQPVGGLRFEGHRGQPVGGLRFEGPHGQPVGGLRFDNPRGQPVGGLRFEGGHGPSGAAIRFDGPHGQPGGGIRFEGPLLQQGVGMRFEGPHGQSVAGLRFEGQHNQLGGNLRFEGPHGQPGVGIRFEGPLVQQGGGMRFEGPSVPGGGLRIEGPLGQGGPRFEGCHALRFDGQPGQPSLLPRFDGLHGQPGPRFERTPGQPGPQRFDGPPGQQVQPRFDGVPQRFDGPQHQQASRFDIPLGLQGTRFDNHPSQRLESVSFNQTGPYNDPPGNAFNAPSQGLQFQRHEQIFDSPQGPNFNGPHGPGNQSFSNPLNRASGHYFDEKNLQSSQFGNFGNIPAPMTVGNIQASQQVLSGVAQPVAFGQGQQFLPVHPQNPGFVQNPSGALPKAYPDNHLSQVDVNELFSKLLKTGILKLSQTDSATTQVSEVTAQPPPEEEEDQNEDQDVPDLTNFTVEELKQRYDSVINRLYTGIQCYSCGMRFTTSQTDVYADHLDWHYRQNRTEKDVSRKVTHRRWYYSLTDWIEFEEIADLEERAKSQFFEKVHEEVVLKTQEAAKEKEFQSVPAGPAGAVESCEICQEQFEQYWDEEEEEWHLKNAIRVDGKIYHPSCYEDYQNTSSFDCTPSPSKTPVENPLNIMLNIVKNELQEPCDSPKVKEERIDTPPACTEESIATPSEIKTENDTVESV
UniProt Q6L8Q7: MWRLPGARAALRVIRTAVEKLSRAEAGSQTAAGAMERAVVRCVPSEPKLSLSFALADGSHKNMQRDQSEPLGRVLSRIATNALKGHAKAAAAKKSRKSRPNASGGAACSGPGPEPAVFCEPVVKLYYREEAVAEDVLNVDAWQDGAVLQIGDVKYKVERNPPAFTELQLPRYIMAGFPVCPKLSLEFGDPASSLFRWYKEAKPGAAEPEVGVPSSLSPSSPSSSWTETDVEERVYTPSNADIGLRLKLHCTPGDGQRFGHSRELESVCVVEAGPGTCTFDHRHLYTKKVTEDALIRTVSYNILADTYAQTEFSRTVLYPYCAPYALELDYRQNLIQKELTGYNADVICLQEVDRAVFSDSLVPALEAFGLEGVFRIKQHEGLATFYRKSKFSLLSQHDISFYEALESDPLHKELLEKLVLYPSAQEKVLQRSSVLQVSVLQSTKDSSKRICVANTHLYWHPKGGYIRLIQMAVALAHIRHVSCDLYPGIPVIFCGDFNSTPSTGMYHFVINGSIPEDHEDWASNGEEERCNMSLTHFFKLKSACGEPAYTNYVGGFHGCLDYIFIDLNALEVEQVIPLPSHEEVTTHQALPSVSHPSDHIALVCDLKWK

Some of the results follow.

Assay in all cases: log2 fold change, soluble protein after heating vs DMSO (PISA); higher = thermal stabilisation; K562 lysate, 10 uM; active = over 0.2 and 3.5 SD of the protein, either way, in both replicates (recomputed)
Compound in experiment [1]: NCC(=O)Nc1ccc(-n2nc(C(F)(F)F)cc2-c2ccc3c(ccc4ccccc43)c2)cc1
A digest of the protocol: (§1)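 To prepare the extract, K562 pellets were dounce-homogenised in PBS pH 7.4 with 1 mM MgCl2, giving crude material at 1 mg/mL protein. This was treated with 10 μM compound for 30 min, then heated in aliquots for 3 min over 48°C-58°C before pooling and addition of NP-40 to 0.5% at 4°C. Centrifugation at 21,000xg for 90 min left soluble protein in the supernatant, which TMTpro 16plex LC-MS/MS quantified with equalised channel sums. Results are log-two fold changes in thermal stability compared with solvent controls, from duplicates.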

Compound in experiment [2]: O=C(CCCCCCC(=O)Nc1ccccc1)NO [vorinostat]
A digest of the protocol: as §1

Compound in experiment [3]: O=C(O)c1ccc2c(c1)nc(Nc1cccc(Cl)c1)c1ccncc12 [silmitasertib]
An outline of the steps:
as §1

Compound in experiment [4]: O=C1NC(=O)C(c2cnc3ccccn23)=C1c1cn2c3c(cc(F)cc13)CN(C(=O)N1CCCCC1)CC2
An outline of the steps: as §1

Compound in experiment [5]: c1cn2cc(-c3ccc4cn[nH]c4c3)nc(Nc3ccc(N4CCOCC4)cc3)c2n1 [entospletinib]
A digest of the protocol:
as §1

Consider PCCA (UniProt P05165), for which the log2 fold change is inactive: -0.018 in experiment [1]; inactive: 0.137 in experiment [2]; inactive: 0.045 in experiment [3]; inactive: -0.02 in experiment [4]; inactive: -0.036 in experiment [5].

For the target PES1 (UniProt O00541), the log2 fold change in experiment [1] is inactive: 0.03; in experiment [2], inactive: -0.193; in experiment [3] it was inactive: 0.037; in experiment [4] it was inactive: 0.014; in experiment [5], inactive: -0.015.

Consider PDIA5 (UniProt Q14554), for which the log2 fold change was inactive: -0.009 in experiment [1]; inactive: 0.086 in experiment [2]; inactive: -0.015 in experiment [3]; inactive: 0.017 in experiment [4]; inactive: -0.009 in experiment [5].

In the case of PDHA1 isoform 4 (UniProt P08559), the log2 fold change in experiment [1] is inactive: 0.039; in experiment [2] it was inactive: -0.105; in experiment [3], inactive: 0.047; in experiment [4], inactive: 0.004; in experiment [5], inactive: 0.002.

Take PFKFB1 (UniProt P16118): the log2 fold change was inactive: 0.081 in experiment [1], inactive: -0.284 in experiment [2], inactive: 0.077 in experiment [3] and inactive: -0.064 in experiment [5].

In the case of PCNX3 (UniProt Q9H6A9), the log2 fold change is inactive: 0.114 in experiment [1], inactive: -0.026 in experiment [4] and inactive: 0.049 in experiment [5].

Regarding PGD (UniProt K7EPF6), the log2 fold change in experiment [4] is inactive: -0.034.

In the case of PEX7 (UniProt O00628), the log2 fold change in experiment [1] is inactive: 0.01; in experiment [5], inactive: 0.

As to PCF11 (UniProt O94913), the log2 fold change in experiment [1] was inactive: 0.043; in experiment [2], active: -0.339; in experiment [3], inactive: -0.023; in experiment [4], inactive: -0.001; in experiment [5], inactive: 0.016.

With PDE12 (UniProt Q6L8Q7), the log2 fold change in experiment [1] was inactive: -0.007; in experiment [2], inactive: 0.014; in experiment [3], inactive: 0.001; in experiment [4], inactive: 0.005; in experiment [5], inactive: 0.041.

Consider PCBP2 (UniProt F8VRH0), for which the log2 fold change in experiment [2] is active: -0.982; in experiment [3], inactive: -0.441; in experiment [4], inactive: 0.006.
